From paper PMC4227790

Target: FLAG-tagged TRAP150 ΔC359 (lacks the C-terminal 359-residue region)
Assay: co-IP; anti-FLAG immunoprecipitation of FLAG-TRAP150 (full length or truncated) from lysate of transfected HEK293 cells (hypotonic buffer with 0.5% Triton X-100, brought to 150 mM NaCl); precipitates mock- or RNase A-treated; immunoblot of endogenous partners

B1: CPSF160 (protein, UniProt Q10570 1-1443)
chain: MYAVYKQAHPPTGLEFSMYCNFFNNSERNLVVAGTSQLYVYRLNRDAEALTKNDRSTEGKAHREKLELAASFSFFGNVMSMASVQLAGAKRDALLLSFKDAKLSVVEYDPGTHDLKTLSLHYFEEPELRDGFVQNVHTPRVRVDPDGRCAAMLVYGTRLVVLPFRRESLAEEHEGLVGEGQRSSFLPSYIIDVRALDEKLLNIIDLQFLHGYYEPTLLILFEPNQTWPGRVAVRQDTCSIVAISLNITQKVHPVIWSLTSLPFDCTQALAVPKPIGGVVVFAVNSLLYLNQSVPPYGVALNSLTTGTTAFPLRTQEGVRITLDCAQATFISYDKMVISLKGGEIYVLTLITDGMRSVRAFHFDKAAASVLTTSMVTMEPGYLFLGSRLGNSLLLKYTEKLQEPPASAVREAADKEEPPSKKKRVDATAGWSAAGKSVPQDEVDEIEVYGSEAQSGTQLATYSFEVCDSILNIGPCANAAVGEPAFLSEEFQNSPEPDLEIVVCSGHGKNGALSVLQKSIRPQVVTTFELPGCYDMWTVIAPVRKEEEDNPKGEGTEQEPSTTPEADDDGRRHGFLILSREDSTMILQTGQEIMELDTSGFATQGPTVFAGNIGDNRYIVQVSPLGIRLLEGVNQLHFIPVDLGAPIVQCAVADPYVVIMSAEGHVTMFLLKSDSYGGRHHRLALHKPPLHHQSKVITLCLYRDLSGMFTTESRLGGARDELGGRSGPEAEGLGSETSPTVDDEEEMLYGDSGSLFSPSKEEARRSSQPPADRDPAPFRAEPTHWCLLVRENGTMEIYQLPDWRLVFLVKNFPVGQRVLVDSSFGQPTTQGEARREEATRQGELPLVKEVLLVALGSRQSRPYLLVHVDQELLIYEAFPHDSQLGQGNLKVRFKKVPHNINFREKKPKPSKKKAEGGGAEEGAGARGRVARFRYFEDIYGYSGVFICGPSPHWLLVTGRGALRLHPMAIDGPVDSFAPFHNVNCPRGFLYFNRQGELRISVLPAYLSYDAPWPVRKIPLRCTAHYVAYHVESKVYAVATSTNTPCARIPRMTGEEKEFETIERDERYIHPQQEAFSIQLISPVSWEAIPNARIELQEWEHVTCMKTVSLRSEETVSGLKGYVAAGTCLMQGEEVTCRGRILIMDVIEVVPEPGQPLTKNKFKVLYEKEQKGPVTALCHCNGHLVSAIGQKIFLWSLRASELTGMAFIDTQLYIHQMISVKNFILAADVMKSISLLRYQEESKTLSLVSRDAKPLEVYSVDFMVDNAQLGFLVSDRDRNLMVYMYLPEAKESFGGMRLLRRADFHVGAHVNTFWRTPCRGATEGLSKKSVVWENKHITWFATLDGGIGLLLPMQEKTYRRLLMLQNALTTMLPHHAGLNPRAFRMLHVDRRTLQNAVRNVLDGELLNRYLYLSTMERSELAKKIGTTPDIILDDLLETDRVTAHF
binding: binds

B2: CPSF73 (protein, UniProt Q9UKF6 1-684)
chain: MSAIPAEESDQLLIRPLGAGQEVGRSCIILEFKGRKIMLDCGIHPGLEGMDALPYIDLIDPAEIDLLLISHFHLDHCGALPWFLQKTSFKGRTFMTHATKAIYRWLLSDYVKVSNISADDMLYTETDLEESMDKIETINFHEVKEVAGIKFWCYHAGHVLGAAMFMIEIAGVKLLYTGDFSRQEDRHLMAAEIPNIKPDILIIESTYGTHIHEKREEREARFCNTVHDIVNRGGRGLIPVFALGRAQELLLILDEYWQNHPELHDIPIYYASSLAKKCMAVYQTYVNAMNDKIRKQININNPFVFKHISNLKSMDHFDDIGPSVVMASPGMMQSGLSRELFESWCTDKRNGVIIAGYCVEGTLAKHIMSEPEEITTMSGQKLPLKMSVDYISFSAHTDYQQTSEFIRALKPPHVILVHGEQNEMARLKAALIREYEDNDEVHIEVHNPRNTEAVTLNFRGEKLAKVMGFLADKKPEQGQRVSGILVKRNFNYHILSPCDLSNYTDLAMSTVKQTQAIPYTGPFNLLCYQLQKLTGDVEELEIQEKPALKVFKNITVIQEPGMVVLEWLANPSNDMYADTVTTVILEVQSNPKIRKGAVQKVSKKLEMHVYSKRLEIMLQDIFGEDCVSVKDDSILSVTVDGKTANLNLETRTVECEEGSEDDESLREMVELAAQRLYEALTPVH
binding: binds

These are yes or no findings as the source states them, for the method shown. In cells and extracts the contact can be indirect. Binding can be weak; no strength is given.
